# Results deposited as PubChem BioAssay AID1259425 (University of Nebraska Medical Center, 2018)
# Test: 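Compare each knockdown with KSR1 silencing using changes in marker transcripts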 (primary screen)
# Cell system: HCT116 human colon cancer cells
# Knock-down reagent: siRNA pool against human genes, 50 nM siRNA
# Detection: 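mRNA of six signature genes measured together by branched-DNA assay after 50 nM siRNA pool, blank removed, divided by geometric mean of two housekeeping genes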
# Reading the numbers: BNIP3L mRNA: higher = more BNIP3L transcript after knockdown; NDRG1 mRNA: higher = more NDRG1 transcript after knockdown; BNIP3 mRNA: higher = more BNIP3 transcript after knockdown; ALDOC mRNA: higher = more ALDOC transcript after knockdown
# Here is an unselected part of about 14,000 reagents. Further read-outs or replicates are left out here. Reagent sequences are not shown. Not given: the time to read-out.
target gene,"BNIP3L mRNA, set 1","NDRG1 mRNA, set 1","BNIP3 mRNA, set 1","ALDOC mRNA, set 1"
MTFR1 (mitochondrial fission regulator 1),0.132,0.353,0.17,0.0222
RFK (riboflavin kinase),0.129,0.126,0.287,0.00603
PARD6B (par-6 family cell polarity regulator beta),0.0959,0.304,0.269,0.0245
HAVCR1 (hepatitis A virus cellular receptor 1),0.0643,0.207,0.256,0.0228
RAG1 (recombination activating 1),0.128,0.365,0.238,0.0193
NUP205 (nucleoporin 205),0.127,0.381,0.462,0.024
ERCC6L (ERCC excision repair 6 like DNA helicase),0.14,0.35,0.292,0.0399
IRX3 (iroquois homeobox 3),0.123,0.167,0.397,0.0245
PNLIP (pancreatic lipase),0.0748,0.188,0.294,0.0457
LY6G6E (lymphocyte antigen 6 family member G6E (pseudogene)),0.108,0.266,0.203,0.0564
PIK3R5 (phosphoinositide-3-kinase regulatory subunit 5),0.168,0.238,0.257,0.0362
CUBN (cubilin),0.0954,0.133,0.281,0.0237
MYL2 (myosin light chain 2),0.0702,0.083,0.231,0.0149
MMP25 (matrix metallopeptidase 25),0.194,0.22,0.198,0.0192
TGFB1I1 (transforming growth factor beta 1 induced transcript 1),0.113,0.288,0.328,0.032
RNF43 (ring finger protein 43),0.196,0.395,0.263,0.0326
SLC1A7,0.11,0.799,0.278,0.0441
HTR3A (5-hydroxytryptamine receptor 3A),0.122,0.262,0.269,0.0345
DNAH6 (dynein axonemal heavy chain 6),0.0704,0.254,0.31,0.0555
RCBTB1 (RCC1 and BTB domain containing protein 1),0.111,0.36,0.471,0.0352
PCNX4 (pecanex 4),0.0788,0.254,0.344,0.0353
HDAC5 (histone deacetylase 5),0.0897,0.118,0.22,0.0167
LMF1 (lipase maturation factor 1),0.0453,0.0706,0.406,0.00953
DYNLL1 (dynein light chain LC8-type 1),0.0796,0.0982,0.261,0.0513
FKBP11 (FKBP prolyl isomerase 11),0.138,0.16,0.293,0.0332
SYNGR2 (synaptogyrin 2),0.0955,0.237,0.251,0.0244
GFRA2 (GDNF family receptor alpha 2),0.172,0.335,0.403,0.0091
ABCG2 (ATP binding cassette subfamily G member 2 (JR blood group)),0.0582,0.11,0.234,0.024
STK39 (serine/threonine kinase 39),0.183,0.16,0.733,0.0158
"ACAP1 (ArfGAP with coiled-coil, ankyrin repeat and PH domains 1)",0.187,0.228,0.345,0.0267
CCDC93 (CCC complex scaffolding subunit CCDC93),0.0615,1.08,0.247,0.0243
MMRN2 (multimerin 2),0.133,0.175,0.3,0.0329
ERLIN2 (ER lipid raft associated 2),0.0663,0.0901,0.225,0.0163
DUSP4 (dual specificity phosphatase 4),0.0917,0.283,0.345,0.00915
